In the supplement of paper PMC3334620:
The full ranking holds about 33,000 sequences; the median of “E-score (-0.5 to 0.5)” is about -8e-05, and the highest 2% start at about 0.23. Some of the results follow.

molecular target: T1, Nrg2 (UniProt P38082); assay: PBM E-score (8-mer binding enrichment) (E-score (-0.5 to 0.5)); higher = stronger / more preferred TF binding; conditions: protein concentration: 100 nM; construct: GST-full length
T1 sequence: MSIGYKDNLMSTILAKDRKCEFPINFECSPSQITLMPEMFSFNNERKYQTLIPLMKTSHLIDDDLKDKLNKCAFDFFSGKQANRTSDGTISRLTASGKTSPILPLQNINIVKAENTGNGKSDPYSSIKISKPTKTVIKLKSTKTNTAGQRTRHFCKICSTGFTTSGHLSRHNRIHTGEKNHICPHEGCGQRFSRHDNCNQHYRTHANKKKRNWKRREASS
Experimental: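 Universal 'all 10-mer' protein binding microarrays (Agilent AMADID 015681) probed with GST-tagged S. cerevisiae TFs (full-length or DBD) made by in vitro transcription/translation (PURExpress), about 100-200 nM. Bound TF was detected with fluorescent anti-GST. Each ungapped 8-mer (which stands for itself and its reverse complement) is scored by the PBM enrichment score (E-score), a modified Wilcoxon-Mann-Whitney statistic from -0.5 to +0.5, computed with the Universal PBM Analysis Suite. Scale: above 0.35 generally sequence-specific binding.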

Row | Sequence | PBM E-score
1 | GGTGTCGA | 0.0796
2 | GCGCAGTA | 0.13
3 | CATAATCC | 0.171
4 | AGAACAGG | -0.122
5 | TTGTTAAA | -0.126
6 | CTTGCCCC | 0
7 | ATATCTTC | 0.165
8 | GAATGGGA | -0.0567
9 | GATCGTCC | 0.0378
10 | ACTACGTC | -0.0921
11 | CCGAATTA | -0.00177
12 | CACGGTTC | -0.0806
13 | AAGCACCC | -0.135
14 | ATACTTTC | 0.0743
15 | GCCACGAA | -0.0816
16 | ACTCTGTC | 0.0724
17 | CTTGATAA | 0.147
18 | GTCAGCAC | -0.0154
19 | CGCTCGCA | 0.1
20 | AAAACAGA | 0.00615
21 | ATATGTCC | 0.0603
22 | ACCCCCAT | -0.247
23 | CGTGGGAG | -0.18
24 | CCGAACCC | -0.102
25 | CCGCACTA | 0.124

4 entries from above in a different format.
TTGTTAAA
  PBM E-score: -0.126
CTTGCCCC
  PBM E-score: 0
ATATCTTC
  PBM E-score: 0.165
GAATGGGA
  PBM E-score: -0.0567

Later entries:

Row | Sequence | PBM E-score
26 | CTTCCTAA | -0.0499
27 | TAATCCAA | 0.0765
28 | CCCGAGTA | 0.162
29 | ACTCGAAG | -0.101
30 | CCCTCTCA | -0.212
31 | CCCCAAAC | -0.0816
32 | AACGGACC | -0.0404
33 | ACCGAGAG | 0.0959
34 | GCCGCTTA | -0.00941
35 | GGGCGTGA | 0.0253
36 | CCGAAGAG | -0.104
37 | GTCGACAA | 0.0206
38 | TATACAAA | 0.148
39 | ACAAGTTC | 0.0761
40 | CCAATGAG | 0.0612
41 | AGCTGTCG | -0.197
42 | CTGACGGC | -0.125
43 | AATTACGC | 0.0258
44 | AGGCAAAA | 0.16
45 | ATCACAGA | 0.0396
46 | AGCCAGAT | -0.0992
47 | GGAACTAA | 0.0607
48 | CGATAGTA | 0.0552
49 | CTACATGA | -0.105
50 | CTGTTTGC | 0.0699

Row | Sequence | PBM E-score
51 | TAGCGCGA | 0.175
52 | AGGCCACG | -0.0484
53 | CGATTGAA | -0.0793
54 | AGATAGCA | 0.0387
55 | ACGTGTTA | 0.154
56 | AGCGTTAA | -0.144
57 | AGAAGGAA | -0.216
58 | ATTGTTCA | 0.13
59 | GACTTTAC | 0.0182
60 | CTAGGCGA | -0.0634
61 | ACGGGAAC | -0.036
62 | ACTGAGTG | -0.127
63 | GAAGTGTC | 0.039
64 | AGGTTTCA | 0.111
65 | ACTAAGCA | -0.0896
66 | CCTGCTGC | 0.029
67 | AATCACTC | 0.0286
68 | CATTCTAA | -0.0137
69 | ATCAGAGA | -0.0362
70 | ACGCACCA | -0.0635
71 | TACTATCA | 0.0993
72 | GGGGCAGA | -0.0267
73 | GTTTCGCA | -0.144
74 | CATATACC | -0.16
75 | ACCCGCGT | -0.119

Fetched one by one from the entries so far, 7 records:
Row | Sequence | PBM E-score
65 | ACTAAGCA | -0.0896
75 | ACCCGCGT | -0.119
68 | CATTCTAA | -0.0137
61 | ACGGGAAC | -0.036
53 | CGATTGAA | -0.0793
62 | ACTGAGTG | -0.127
55 | ACGTGTTA | 0.154

Additional records follow.

Row | Sequence | PBM E-score
76 | GGTGCTCA | -0.115
77 | CGGACCGC | -0.067
78 | AATCTAGA | -0.11
79 | AGAAGCAC | -0.153
80 | ATCTAACG | 0.0144
81 | AGTAGGAC | 0.0513
82 | ACTGATAG | -0.0128
83 | ACGTTAAG | -0.0628
84 | TGCCACCA | -0.25
85 | CGGATACC | 0.101
86 | ACCTAAGC | 0.0203
87 | CGTTCTCC | 0.0223
88 | AGATCAGA | 0.111
89 | ACGTCCAC | -0.163
90 | AGCCACCC | -0.314
91 | ACCGAAAT | 0.0426
92 | AGCAGTCG | -0.0198
93 | AAAGGTAT | 0.0476
94 | AGCATAAA | -0.0339
95 | GAACCAAA | 0.0228
96 | GCTGCGCC | -0.126
97 | CAACTAAG | 0.0881
98 | CAAGTCTC | -0.299
99 | CAGCTGCA | -0.00861
100 | AGCCCTTC | -0.224

Row | Sequence | PBM E-score
101 | TTACGTAA | -0.134
102 | ACAAACAG | 0.196
103 | TCTGGGCA | -0.144
104 | AGCCGACT | -0.111
105 | CCCGGCCA | -0.294
106 | CGCGCCGA | 0.0262
107 | TGAAGACA | -0.0868
108 | GATAAGAA | 0.0876
109 | CGAGCATC | 0.0374
110 | AGCCGTAC | -0.00653
111 | AGAACGAA | 0.179
112 | CATATTTA | 0.18
113 | GCCCTAGC | -0.102
114 | GCGGTCAA | -0.0725
115 | CCGCGGTC | 0.01
116 | AAGATAAT | 0.127
117 | GTCTAGCA | 0.00493
118 | TTTGCAAA | 0.0147
119 | TCACGTCA | 0.0171
120 | GAAGTGCA | 0.135
121 | AGTGGGGC | -0.187
122 | TAAAGTGA | 0.0467
123 | ACTCCAAG | -0.0518
124 | ACGGTAAA | -0.0106
125 | GAGTTGCC | 0.0538

Row | Sequence | PBM E-score
126 | ACCCTTGA | 0.242
127 | ACAGTGTA | 0.0441
128 | ACAATGCG | 0.191
129 | AGCTAGTC | -0.0122
130 | CATCTCGC | 0.0179
131 | ACCTGCAG | -0.0488
132 | AACTGTCA | -0.0456
133 | AGTTGCGA | 0.218
134 | CCCTCGAG | 0.143
135 | AAGACGTC | -0.0365
136 | CCTATGAG | -0.0467
137 | AAAAACGC | 0.0582
138 | AGAGCGAC | -0.0893
139 | AGATGACG | 0.0118
140 | AACACTCT | -0.06
141 | CCCTGCGG | 0.0459
142 | AAAAGTGG | 0.202
143 | ACAATGTC | 0.107
144 | AGTACTAT | 0.00892
145 | CCAAATGC | 0.133
146 | ACTATGCC | 0.125
147 | ATTACTCA | 0.102
148 | TCGGGTCA | 0.102
149 | CGCTATAA | -0.0237
150 | AAGCGTGT | -0.303

Some of the entries above in a different format:
Row	Sequence	PBM E-score
100	AGCCCTTC	-0.224
121	AGTGGGGC	-0.187

Continuation:

Row | Sequence | PBM E-score
151 | AGTTGTTA | 0.101
152 | ATCCGCCG | 0.188
153 | AGCCAGTG | -0.21
154 | AGTTAACC | 0.15
155 | AGGAGCAT | -0.0904
156 | AATACATT | 0.114
157 | CGAGACGC | 0.0527
158 | CGCATAGA | 0.168
159 | CACTTGAA | 0.0506
160 | TCTTAACA | 0.0176
161 | AAACGCTT | -0.125
162 | ATAGAGAA | 0.0211
163 | CCCGATGA | 0.142
164 | TATGGCGA | -0.0815
165 | ACAGGCAC | -0.126
166 | CAGTCAAA | -0.229
167 | ACTCTGAA | 0.0654
168 | AATACCGA | -0.16
169 | CTAATCGA | 0.131
170 | CGTGACTA | 0.00642
171 | CAATGCAG | 0.00706
172 | CTTACAGA | 0.0133
173 | AGCGCAGC | -0.153
174 | AGATAAGA | 0.116
175 | AGATACCG | -0.107

Row | Sequence | PBM E-score
176 | ACGTAGGC | -0.226
177 | GGCGTTAC | -0.144
178 | ACCTTAGG | -0.191
179 | CCGTCACA | -0.135
180 | TACTTTCA | 0.0426
181 | ACGAAGGG | -0.0423
182 | CTTACATA | -0.0597
183 | CAATCGTC | -0.0499
184 | AACCTATC | 0.0325
185 | AAAGCTCT | -0.282
186 | AGCGGAGG | -0.24
187 | CTTGGCTC | -0.055
188 | AGCTTGAC | -0.141
189 | CCCCCTTA | -0.156
190 | GAATCACA | 0.103
191 | AGTGACAC | -0.00081
192 | AATCTACA | 0.155
193 | CCCTACTC | 0.0197
194 | CGCTTAAC | -0.0286
195 | CAGACGAG | 0.0528
196 | CCGCGCAG | 0.0598
197 | CCGTATCG | -0.115
198 | GGGCCACA | -0.0333
199 | ATTCGCGC | 0.159
200 | CCGTCGTC | -0.0166

Row | Sequence | PBM E-score
201 | ATTGAATG | 0.0439
202 | GACCGATC | -0.0307
203 | GTGTTGAA | -0.0238
204 | AAGGTCCA | 0.073
205 | GGGCCCCA | 0.00797
206 | CATAGGTC | -0.0159
207 | AGAAGCCC | -0.0779
208 | CGCAGACG | 0.0706
209 | AGTCCTCA | 0.015
210 | ATCCTGCA | 0.117
211 | CAAGTACG | -0.275
212 | TTGGTAAA | -0.0882
213 | GAATCGCC | -0.0857
214 | CCCGTGAA | 0.0306
215 | AGGCTTCC | 0.0147
216 | AGGAGGCA | -0.179
217 | CGGATGTA | -0.0978
218 | TGATCTAA | -0.0382
219 | GTAGAAAA | -0.0337
